Positions count from the first letter of the chain named. Results are given in words; binding and its absence hold for the method and conditions named. Some entries that bind do so weakly or less than the wild type.
B1: CD33/CD3 tandem diabody 12 (bispecific antibody)
chain: DIQMTQSPSSLSASVGDRVTITCRSSTGAVTTSNYANWVQQKPGKAPKALIGGTNKRAPGVPSRFSGSLIGDKATLTISSLQPEDFATYYCALWYSNLWVFGQGTKVEIKGGSGGSQVQLVQSGAEVKKPGASVKVSCKASGYTFTSYDINWVRQAPGQGLEWMGWMNPNSGNTGFAQKFQGRVTMTRDTSTSTVYMELSSLRSEDTAVYYCARDRAVTDYYYGMDVWGQGTLVTVSSGGSGQSVLTQPPSASGTPGQRVTISCSGSRSNIGSNTVNWYQQLPGTAPKLLIYGNNQRPSGVPDRFSGSKSGTSASLAISGLQSEDEADYYCATWDDSLIGWVFGGGTKLTVLGGSGGSEVQLVESGGGLVQPGGSLRLSCAASGFTFSTYAMNWVRQAPGKGLEWVGRIRSKYNNYATYYADSVKDRFTISRDDSKNSLYLQMNSLKTEDTAVYYCARHGNFGNSYVSYFAYWGQGTLVTVSSAAAGSHHHHHH
B2: CD33/CD3 tandem diabody 14 (bispecific antibody)
chain: B1 chain with V218N, Y221F, Y222S, T312S
B3: CD33/CD3 tandem diabody 16 (bispecific antibody)
chain: B1 chain with V218N, Y222S, Y223L

What follows are binders tested against T1, stretch 62…70 in the first Ig like domain of human CD33 (human) (assay: CLIPS peptide array ELISA (Pepscan)).
T1 sequence (peptide): DQEVQEETQ
B1 was tested, and the binding was “binds”. For B2, the binding was “binds”. For B3, the binding was “binds”.

Reference: patent publication US20210032339A1 (AMPHIVENA THERAPEUTICS, published 2021)
